Results deposited as PubChem BioAssay AID686937 (Drosophila RNAi Screening Center, 2013).

- Assay: 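Knock-downs that reduce output of a secreted reporter enzyme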 (primary screen)
- System: Drosophila S2 cells expressing secreted horseradish peroxidase
- Knock-down reagent: long dsRNA against Drosophila genes
- Duration: about 5.5 days (5 days dsRNA, then 12 h reporter induction)
- Conditions: reporter expression induced after 5 days of dsRNA, read 12 h later; inducer not stated
- Measurement: 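After 5 days of dsRNA and 12 h of reporter induction, medium peroxidase read by chemiluminescence and scored as per-plate z-score; higher values mean more reporter released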
- Scale: z-score: higher = more reporter secreted into medium
The screen tested about 23,000 reagents; shown is a random part of those that have a named target and a result. 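Reduced-secretion tags in replicate 1 do not always agree with the z-scores; no criterion for assigning the tags was given.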 Not all columns of the deposit are shown. Not stated in the record: the amount of reagent.

| Gene | DRSC id | z-score, replicate 1 |
| --- | --- | --- |
| CG33937 (retired record) | DRSC15148 | 0.31 |
| Gug | DRSC11179 | -0.08 |
| Npc2g | DRSC14296 | -0.09 |
| H15 | DRSC03339 | 0.08 |
| H15 | DRSC22199 | -0.92 |
| RpS25 | DRSC16837 | 0.25 |
| Dora | DRSC19614 | 0.41 |
| Dora | DRSC19781 | 0.09 |
| Dora | DRSC20034 | -0.17 |
| Dora | DRSC20035 | -0.85 |
| Muc68D | DRSC10569 | 0.09 |
| CG14245 | DRSC14740 | 0.54 |
| CG11145 | DRSC06049 | 0.35 |
| dpr13 | DRSC06160 | 0.09 |
| dpr13 | DRSC06464 | 0.62 |
| CG9257 | DRSC03173 | 0.03 |
| CG15465 | DRSC18048 | 0.46 |
| CG30015 | DRSC05241 | 0.72 |
| CG30015 | DRSC07027 | -1.49 |
| CG30015 | DRSC07028 | 0.22 |
| CG18171 | DRSC08524 | 0.34 |

Copied from the list:
Under “z-score, replicate 1”, CG9257 [DRSC03173] has 0.03
Entry of CG11145 [DRSC06049] under “z-score, replicate 1”: 0.35

More entries:
| Gene | DRSC id | z-score, replicate 1 |
| --- | --- | --- |
| CG10011 | DRSC14174 | 0.28 |
| zda | DRSC06936 | -4.78 |
| Smox | DRSC18716 | -0.08 |
| CG8630 | DRSC16441 | -0.31 |
| CG42538 | DRSC09412 | 0.48 |
| Arpc3B | DRSC20126 | -0.8 |
| CG33461 | DRSC22892 | -0.4 |
| CG6769 | DRSC20006 | 0.25 |
| ND-B14 | DRSC07029 | -0.31 |
| HHEX | DRSC16186 | -0.15 |
| CG12017 | DRSC08225 | 0.56 |
| CG32801 | DRSC17964 | 0.16 |
